Earlier results as cited in patent publication US4193929A, “Epoxidation” (Propylox a Societe Anonyme, priority 1976, dated 1980).
At least one read-out could not be matched to a standard name with certainty.

Details: aqueous solution at 25° C.

CC(Cl)C(=O)O (stereo not shown) [αchloropropionic]
pK × 10^5: 147
